From ChEMBL document CHEMBL4842372, “Discovery of ARD-2585 as an Exceptionally Potent and Orally Active PROTAC Degrader of Androgen Receptor for the Treatment of Advanced Prostate Cancer” (J Med Chem, 2021)
pIC50: −log10 of the molar value.

System: LNCaP
Assay: Growth inhibition of human LNCaP cells carrying AR T878A mutant assessed as cell viability by WST-8 assay
Assay type: functional, cell-based

pIC50: 6.88
Compound: CNC(=O)c1ccc(N2C(=S)N(c3ccc(C#N)c(C(F)(F)F)c3)C(=O)C2(C)C)cc1F [ENZALUTAMIDE]
